Laboratory results from the supplement of paper PMC10849652.
This is one part of the list.

Sequences of proteins named here, by UniProt entry; tags and fusion partners are left off. A change or cut given only in a name is not applied to a line headed by its entry.
UniProt Q96AG3: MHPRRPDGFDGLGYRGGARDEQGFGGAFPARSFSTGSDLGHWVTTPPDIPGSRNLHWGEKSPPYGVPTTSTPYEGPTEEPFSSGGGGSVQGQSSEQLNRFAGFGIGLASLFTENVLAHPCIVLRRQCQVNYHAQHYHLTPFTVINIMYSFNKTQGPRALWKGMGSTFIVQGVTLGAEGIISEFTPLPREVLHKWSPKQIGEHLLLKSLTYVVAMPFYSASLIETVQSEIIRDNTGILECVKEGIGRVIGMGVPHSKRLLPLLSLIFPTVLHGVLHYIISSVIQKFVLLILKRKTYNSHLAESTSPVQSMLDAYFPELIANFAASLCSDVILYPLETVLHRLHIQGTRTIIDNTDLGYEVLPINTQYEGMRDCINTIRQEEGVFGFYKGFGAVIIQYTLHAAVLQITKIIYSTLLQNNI
UniProt Q8NEW0: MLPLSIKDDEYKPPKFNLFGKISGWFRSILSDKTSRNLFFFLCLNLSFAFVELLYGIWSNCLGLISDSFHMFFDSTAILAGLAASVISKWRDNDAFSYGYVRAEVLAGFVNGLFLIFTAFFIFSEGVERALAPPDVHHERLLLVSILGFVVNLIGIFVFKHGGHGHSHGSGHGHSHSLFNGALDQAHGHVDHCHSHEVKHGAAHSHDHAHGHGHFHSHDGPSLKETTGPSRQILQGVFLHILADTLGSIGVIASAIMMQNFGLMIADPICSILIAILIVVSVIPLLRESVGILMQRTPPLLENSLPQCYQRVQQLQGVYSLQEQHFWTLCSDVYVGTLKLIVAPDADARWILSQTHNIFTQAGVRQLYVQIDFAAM
UniProt P53794: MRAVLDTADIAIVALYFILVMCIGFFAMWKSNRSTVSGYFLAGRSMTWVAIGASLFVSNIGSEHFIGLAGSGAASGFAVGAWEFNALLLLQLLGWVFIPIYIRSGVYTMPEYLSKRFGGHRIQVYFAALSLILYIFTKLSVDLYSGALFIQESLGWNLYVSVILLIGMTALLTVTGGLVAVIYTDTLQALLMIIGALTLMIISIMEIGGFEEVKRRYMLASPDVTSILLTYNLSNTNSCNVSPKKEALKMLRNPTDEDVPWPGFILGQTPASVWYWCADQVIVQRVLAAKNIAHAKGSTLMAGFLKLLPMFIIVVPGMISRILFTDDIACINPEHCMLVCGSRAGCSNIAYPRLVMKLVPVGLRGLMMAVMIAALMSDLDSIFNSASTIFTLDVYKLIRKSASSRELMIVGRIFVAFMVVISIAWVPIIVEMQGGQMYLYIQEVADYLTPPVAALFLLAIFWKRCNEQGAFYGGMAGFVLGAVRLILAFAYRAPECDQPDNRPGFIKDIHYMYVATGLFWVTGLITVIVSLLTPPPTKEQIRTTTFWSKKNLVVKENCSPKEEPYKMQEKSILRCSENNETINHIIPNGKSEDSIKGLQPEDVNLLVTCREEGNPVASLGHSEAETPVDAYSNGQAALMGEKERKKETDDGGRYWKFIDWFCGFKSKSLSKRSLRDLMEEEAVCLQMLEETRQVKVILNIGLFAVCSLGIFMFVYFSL
UniProt Q99717: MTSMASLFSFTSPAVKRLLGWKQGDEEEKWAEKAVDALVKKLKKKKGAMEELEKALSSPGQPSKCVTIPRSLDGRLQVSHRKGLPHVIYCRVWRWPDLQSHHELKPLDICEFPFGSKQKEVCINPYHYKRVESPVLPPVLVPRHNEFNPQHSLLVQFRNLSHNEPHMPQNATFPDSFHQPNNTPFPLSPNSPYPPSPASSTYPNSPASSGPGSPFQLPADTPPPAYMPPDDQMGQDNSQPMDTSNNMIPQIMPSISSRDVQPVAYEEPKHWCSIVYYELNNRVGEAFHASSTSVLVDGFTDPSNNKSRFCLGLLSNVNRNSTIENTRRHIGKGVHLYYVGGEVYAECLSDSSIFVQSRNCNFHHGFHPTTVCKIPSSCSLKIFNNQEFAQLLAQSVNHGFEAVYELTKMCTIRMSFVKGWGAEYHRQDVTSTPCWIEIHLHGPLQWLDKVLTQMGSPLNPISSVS
UniProt Q92581: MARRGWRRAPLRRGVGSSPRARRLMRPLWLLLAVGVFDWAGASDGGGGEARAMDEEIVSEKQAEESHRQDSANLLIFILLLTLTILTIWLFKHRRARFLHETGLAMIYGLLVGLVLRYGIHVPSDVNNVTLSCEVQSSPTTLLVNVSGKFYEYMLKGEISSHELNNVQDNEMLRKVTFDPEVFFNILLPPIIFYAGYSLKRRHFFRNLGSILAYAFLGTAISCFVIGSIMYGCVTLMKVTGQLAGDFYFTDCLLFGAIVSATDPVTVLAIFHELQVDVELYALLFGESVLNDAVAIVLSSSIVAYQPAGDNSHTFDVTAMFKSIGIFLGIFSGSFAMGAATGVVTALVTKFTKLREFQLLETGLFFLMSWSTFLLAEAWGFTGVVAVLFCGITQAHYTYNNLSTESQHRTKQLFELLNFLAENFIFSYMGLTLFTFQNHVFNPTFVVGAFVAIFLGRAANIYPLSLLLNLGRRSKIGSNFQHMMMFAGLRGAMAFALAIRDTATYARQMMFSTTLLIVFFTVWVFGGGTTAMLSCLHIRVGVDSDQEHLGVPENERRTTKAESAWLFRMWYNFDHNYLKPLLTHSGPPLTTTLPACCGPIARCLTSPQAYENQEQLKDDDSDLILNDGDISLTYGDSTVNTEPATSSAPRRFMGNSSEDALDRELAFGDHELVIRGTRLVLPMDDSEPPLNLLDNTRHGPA

Experiments:
Experiment in all cases: log2 fold change, soluble protein after heating vs DMSO (PISA); higher = thermal stabilisation; K562 lysate, 10 uM; active = over 0.2 and 3.5 SD of the protein, either way, in both replicates (recomputed)
[1] = compound: C1=CC=C(C=C1)[C@H](COC2=CC3=C(C=C2)NC(=O)N3)NC(=O)C4=CC=CN(C4=O)CC5=CC(=C(C=C5)F)F
Summary of the method: (§1)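 K562 pellets were dounce-homogenised in PBS pH 7.4 containing 1 mM MgCl2, and the crude extract, at 1 mg/mL protein, was exposed to 10 μM compound for 30 min. Aliquots were heated for 3 min across 48°C-58°C, pooled, brought to 0.5% NP-40 at 4°C and spun at 21,000xg for 90 min, with the supernatant taken as soluble protein. TMTpro 16plex LC-MS/MS with equalised channel sums quantified that protein. Values are log-two fold changes in thermal stability relative to solvent controls, taken from duplicates.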

[2] = compound: CC1=C(SC2=C1C(=N[C@H](C3=NN=C(N32)C)CC(=O)N)C4=CC=C(C=C4)Cl)C
Summary of the method: as §1

[3] = compound: CC1=C2C(=CC=C1)N=C(N(C2=O)C3=CC=CC=C3C)CN4C=NC5=C(N=CN=C54)N
Summary of the method: as §1

[4] = compound: Cc1sc2c(c1C)C(c1ccc(Cl)cc1)=N[C@@H](CC(=O)OC(C)(C)C)c1nnc(C)n1-2
Summary of the method: as §1

[5] = compound: c1ccc([C@@H]2C[C@H]2NC2CCNCC2)cc1
Summary of the method: as §1

Measured: log2 fold change

SLC25A46 (UniProt Q96AG3)
inactive: [1] 0.001 | [2] -0.01 | [3] 0.019 | [4] -0.022 | [5] 0.004

SLC30A7 (UniProt Q8NEW0)
inactive: [1] -0.076 | [2] 0.14 | [3] 0.007 | [4] -0.222 | [5] -0.031

SLC5A3 (UniProt P53794)
inactive: [1] -0.034 | [2] -0.016 | [3] -0.001 | [4] -0.041 | [5] -0.002

2 successive entries from above, quoted:
SLC25A46 (UniProt Q96AG3)
inactive: [1] 0.001 | [2] -0.01 | [3] 0.019 | [4] -0.022 | [5] 0.004

SLC30A7 (UniProt Q8NEW0)
inactive: [1] -0.076 | [2] 0.14 | [3] 0.007 | [4] -0.222 | [5] -0.031

(further entries)

SMAD5 (UniProt Q99717)
inactive: [1] -0.008 | [2] -0.004 | [3] 0.054 | [4] -0.025 | [5] 0.118

SLC9A6 isoform 2 (UniProt Q92581)
inactive: [1] -0.074 | [2] -0.085 | [3] -0.03 | [4] 0.006 | [5] 0.062
